Values from PubChem BioAssay AID1671195 (Yale University, 2021)

Aim: 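Regulators of LDL receptor activity judged by labelled LDL uptake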 (primary screen)
Cells: human Huh7 hepatoma cells
Reagents: siRNA pool against human genes, 18 nM
Time to read-out: about 2 to 2.5 days of knockdown, then 8 h LDL uptake
Treatment: DiI-labelled LDL at 30 µg/ml for 8 h, in lipoprotein-deficient serum medium
Measured: 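Per-cell DiI-LDL intensity by automated imaging; well means scaled to the plate median and given as a robust z-score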
Reading the numbers: robust z-score: higher = more LDL uptake after knockdown
Call rule: 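a gene counts as active if at least two replicate z-scores exceed ±2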
The whole screen tested about 22,000 reagents; this is a random part of them. Of all reagents, about 1,510 (6.9%) got an active call. 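Active includes knockdowns raising or lowering LDL uptake; positive z-scores mean more uptake, negative mean less.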 A number with no mark means an inactive call.

| gene | PubChem SID | robust z-score, replicate 1 | robust z-score, replicate 2 | robust z-score, replicate 3 |
| --- | --- | --- | --- | --- |
| LST1 | SID442893280 | 0.0328 | -0.316 | 0.488 |
| SLC4A1 | SID442901692 | -0.869 | -0.998 | -0.955 |
| LBH | SID442904060 | -1.24 | -2.05 | -1.14 |
| ERGIC1 | SID442889801 | 0.823 | 0.553 | 0.146 |
| SUGP1 | SID442893031 | 0.302 | -0.269 | 0.25 |
| PREP | SID442890469 | -0.0121 | 0.717 | 0.536 |
| TMEM106A | SID442883721 | 2.17 (active) | 3.07 | 1.99 |
| TJAP1P1 | SID442884179 | 0.714 (active) | 2.37 | 2.34 |
| ARHGEF9 | SID442900413 | -0.624 | -0.885 | -0.761 |
| TMEM74 | SID442896686 | -0.126 | -0.791 | 0.016 |
| SP1 | SID442900540 | -0.877 | -0.571 | -0.871 |
| RETREG3 | SID442894613 | -0.614 | 0.574 | -0.207 |
| INSIG2 | SID442899539 | -0.227 | -1.46 | -0.214 |
| SFN | SID442889583 | 0.611 | 1.28 | -0.284 |
| RPS2P27 | SID442890943 | 0.466 | 0.475 | 0.11 |
| FNIP1 | SID442888486 | -0.032 | 1.05 | 1.11 |
| CCDC92 | SID442887842 | 0.591 | 1.13 | 0.775 |
| NSMCE1-DT | SID442883189 | 3.75 (active) | 4.45 | 4 |
| ARF3 | SID442888072 | -0.396 | 1.91 | 0.849 |
| CACNG6 | SID442903538 | -1.18 | -1.47 | -1.32 |
| LOC285344 (retired record) | SID442884873 | 1.55 | 1.95 | 1.97 |
| LOC400940 | SID442884957 | 1.44 | 1.55 | 2.29 |
| LOC441993 (retired record) | SID442899476 | -0.428 | -0.674 | -0.775 |

Active calls, of those listed so far:
| gene | PubChem SID | robust z-score, replicate 1 | robust z-score, replicate 2 | robust z-score, replicate 3 |
| --- | --- | --- | --- | --- |
| TMEM106A | SID442883721 | 2.17 (active) | 3.07 | 1.99 |
| TJAP1P1 | SID442884179 | 0.714 (active) | 2.37 | 2.34 |
| NSMCE1-DT | SID442883189 | 3.75 (active) | 4.45 | 4 |

Next records follow.
| gene | PubChem SID | robust z-score, replicate 1 | robust z-score, replicate 2 | robust z-score, replicate 3 |
| --- | --- | --- | --- | --- |
| PCK1 | SID442898864 | -1.09 | 0.0671 | -0.623 |
| SPRR2F | SID442899524 | -1.3 | 0.0406 | -0.631 |
| ENTR1 | SID442895910 | -0.206 | 0.468 | -0.918 |
| NREP | SID442904039 | -1.45 | -1.22 | -1.74 |
| AUNIP | SID442899964 | -0.476 | -0.436 | -1.16 |
| LOC400692 (retired record) | SID442886727 | 1.8 | 0.663 | 0.766 |
| PPP4R2 | SID442888607 | 1.18 | -0.21 | 1.1 |
| WFDC13 | SID442883682 | 2.34 (active) | 2.88 | 2.17 |
| JUNB | SID442900865 | -0.776 | -0.612 | -1.07 |
| SLC6A7 | SID442889236 | 0.629 | 0.51 | 0.632 |
| WNT8B | SID442891481 | 0.726 | 0.455 | -0.338 |
| PRTN3 | SID442903029 | -1.2 | -1.48 | -0.918 |
| IRGC | SID442904647 | -1.9 | -1.92 | -1.52 |
| ACOXL | SID442901372 | -1.18 | -0.784 | -0.708 |
| HEPHL1 | SID442893471 | 0.0389 | -0.013 | 0.113 |
| MIA3 | SID442890709 | 0.00607 | 0.98 | 0.153 |
| GGCX | SID442897451 | -1.17 | 0.512 | -0.499 |
| MRPL36 | SID442897568 | -0.211 | -0.715 | -0.273 |
| ACYP1 | SID442899843 | -0.191 | -0.714 | -1.13 |
| CKMT1B | SID442889101 | -0.251 | 0.281 | 1.81 |
| UGT2B15 | SID442898189 | -0.294 | -0.884 | -0.234 |
| LOC197317 (retired record) | SID442890697 | 0.943 | -0.203 | 0.404 |
| PGAM5 | SID442898849 | -0.414 | -0.53 | -0.693 |
